Some entries share one result that the patent states for a list of compounds.
The compounds below were run against T1, CCR-3 (Homo sapiens, UniProt P51677) (assay: CCR-3 competition binding SPA ([125I]eotaxin)). Details: inhibition of [125I]eotaxin binding to membranes of K562 cells stably expressing CCR-3; mean of at least two experiments.
T1 sequence (P51677 1-355): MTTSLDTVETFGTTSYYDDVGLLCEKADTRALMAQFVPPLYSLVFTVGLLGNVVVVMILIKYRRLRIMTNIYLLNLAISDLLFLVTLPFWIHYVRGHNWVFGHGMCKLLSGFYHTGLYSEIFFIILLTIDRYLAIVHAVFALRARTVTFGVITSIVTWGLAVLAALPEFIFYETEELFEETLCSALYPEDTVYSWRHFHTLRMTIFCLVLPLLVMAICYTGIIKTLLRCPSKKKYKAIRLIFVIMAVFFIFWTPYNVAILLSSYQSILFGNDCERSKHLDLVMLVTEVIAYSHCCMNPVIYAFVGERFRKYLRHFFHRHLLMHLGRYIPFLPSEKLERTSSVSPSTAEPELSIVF
Parameters: expressed in transfected cells

CCR-3 Binding Assay (pIC50), greater than 5.0:
O=C(NCC1CN(CCCC(=O)c2ccc(Cl)cc2)CCO1)Nc1ccc(Cl)cc1 (stereo not shown) [Example 41, N-(4-Chlorophenyl)-N′-({4-[4-(4-chlorophenyl)-4-oxobutyl]morpholin-2-yl)methyl}urea]
O=C(NCC1CN(Cc2ccc(-c3ccccc3)cc2)CCO1)Nc1ccc(Cl)cc1 (stereo not shown) [Example 30, N{[4-(1,1′-Biphenyl-4-ylmethyl)morpholin-2-yl]methyl}N′-(4-chlorophenyl)urea]
CSc1ccccc1CNC(=O)NCC1CN(Cc2ccc(Cl)c(Cl)c2)CCO1 (stereo not shown) [Example 97, N-{[4-(3,4-dichlorobenzyl)morpholin-2-yl]methyl}-N′-[2-(methylthio)benzyl]urea]
O=C(NCc1cccc(F)c1)NCC1CN(Cc2ccc(Cl)c(Cl)c2)CCO1 (stereo not shown) [Example 77, N-{[4-(3,4-dichlorobenzyl)morpholin-2-yl]methyl}-N′-(3-fluorobenzyl)urea]
